For three molecules, binding results are on record in article PMC13246002.

These are yes or no findings as the source states them, for the method shown. Binding seen in cells or lysates may run through a third protein. Some entries that bind do so weakly or less than the wild type. Where a sequence is shown, tags or fusion partners need not be part of it.

Assay [1] addresses T1, Tfb3 C-term-TAP, TFB3(1-11, 238-Stop)-Flag1-TAP (S. cerevisiae) (UniProt Q03290).
T1 sequence: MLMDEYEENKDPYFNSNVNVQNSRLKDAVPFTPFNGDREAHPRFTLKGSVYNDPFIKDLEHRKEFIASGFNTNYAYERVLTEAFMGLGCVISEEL
The assay is described as follows: co-IP; TAP-tagged Tfb3 derivatives precipitated from yeast whole-cell extracts with IgG Sepharose, 1 hr at 4°C, lysis buffer 20 mM HEPES pH 7.6, 10% glycerol, 200 mM KOAc, 1 mM EDTA, 1 mM DTT; beads washed three times; bound proteins immunoblotted.

For assay [2], the target named is T2, Tfb3-TAP (full-length Tfb3 with tandem affinity purification tag) (S. cerevisiae) (UniProt Q03290).
T2 sequence: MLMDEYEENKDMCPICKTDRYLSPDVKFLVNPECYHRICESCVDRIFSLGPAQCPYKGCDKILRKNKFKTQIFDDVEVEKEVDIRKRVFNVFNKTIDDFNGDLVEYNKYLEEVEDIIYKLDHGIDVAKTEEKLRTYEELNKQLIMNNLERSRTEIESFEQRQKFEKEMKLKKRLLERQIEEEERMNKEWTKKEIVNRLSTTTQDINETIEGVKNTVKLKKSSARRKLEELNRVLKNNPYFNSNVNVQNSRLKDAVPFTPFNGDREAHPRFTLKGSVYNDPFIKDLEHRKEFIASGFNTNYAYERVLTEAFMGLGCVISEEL
Described as above.

B1: Ccl1 (protein, UniProt P37366 1-393)
chain: MTDIQLNGKSTLDTPSATMSAKEKEAKLKSADENNKPPNYKRISDDDLYRHSSQYRMWSYTKDQLQEKRVDTNARAIAYIEENLLKFREAHNLTEEEIKVLEAKAIPLTMEEELDLVNFYAKKVQVIAQHLNLPTEVVATAISFFRRFFLENSVMQIDPKSIVHTTIFLACKSENYFISVDSFAQKAKSTRDSVLKFEFKLLESLKFSLLNHHPYKPLHGFFLDIQNVLYGKVDLNYMGQIYDRCKKRITAALLTDVVYFYTPPQITLATLLIEDEALVTRYLETKFPSREGSQESVPGNEKEEPQNDASTTEKNKEKSTESEEYSIDSAKLLTIIRECKSIIEDCKPPSTEEAKKIAAKNYYCQNPSTLIQKLKRKLNGEDTSSTVEKKQKT
For B1, the binding result in assay [1] and in assay [2] was “binds” each time.

B2: Tfb1 (protein, UniProt P32776 1-642)
chain: MSHSGAAIFEKVSGIIAINEDVSPAELTWRSTDGDKVHTVVLSTIDKLQATPASSEKMMLRLIGKVDESKKRKDNEGNEVVPKPQRHMFSFNNRTVMDNIKMTLQQIISRYKDADIYEEKRRREESAQHTETPMSSSSVTAGTPTPHLDTPQLNNGAPLINTAKLDDSLSKEKLLTNLKLQQSLLKGNKVLMKVFQETVINAGLPPSEFWSTRIPLLRAFALSTSQKVGPYNVLSTIKPVASSENKVNVNLSREKILNIFENYPIVKKAYTDNVPKNFKEPEFWARFFSSKLFRKLRGEKIMQNDRGDVIIDRYLTLDQEFDRKDDDMLLHPVKKIIDLDGNIQDDPVVRGNRPDFTMQPGVDINGNSDGTVDILKGMNRLSEKMIMALKNEYSRTNLQNKSNITNDEEDEDNDERNELKIDDLNESYKTNYAIIHLKRNAHEKTTDNDAKSSADSIKNADLKVSNQQMLQQLSLVMDNLINKLDLNQVVPNNEVSNKINKRVITAIKINAKQAKHNNVNSALGSFVDNTSQANELEVKSTLPIDLLESCRMLHTTCCEFLKHFYIHFQSGEQKQASTVKKLYNHLKDCIEKLNELFQDVLNGDGESMSNTCTAYLKPVLNSITLATHKYDEYFNEYNNNSN
Turning to B2, the binding entry in assay [2] is reported as “binds”.

B3: Kin28 (enzyme, UniProt P06242 1-306)
chain: MKVNMEYTKEKKVGEGTYAVVYLGCQHSTGRKIAIKEIKTSEFKDGLDMSAIREVKYLQEMQHPNVIELIDIFMAYDNLNLVLEFLPTDLEVVIKDKSILFTPADIKAWMLMTLRGVYHCHRNFILHRDLKPNNLLFSPDGQIKVADFGLARAIPAPHEILTSNVVTRWYRAPELLFGAKHYTSAIDIWSVGVIFAELMLRIPYLPGQNDVDQMEVTFRALGTPTDRDWPEVSSFMTYNKLQIYPPPSRDELRKRFIAASEYALDFMCGMLTMNPQKRWTAVQCLESDYFKELPPPSDPSSIKIRN
On to B3, for which the binding result in assay [1] and in assay [2] was “binds” each time.
